{"source": "paper PMC5696377", "key": {"[1]": {"target": "T1, IKKα (human (endogenous in MDA-MB-231, BT549)) (UniProt O15111)", "T1 sequence": "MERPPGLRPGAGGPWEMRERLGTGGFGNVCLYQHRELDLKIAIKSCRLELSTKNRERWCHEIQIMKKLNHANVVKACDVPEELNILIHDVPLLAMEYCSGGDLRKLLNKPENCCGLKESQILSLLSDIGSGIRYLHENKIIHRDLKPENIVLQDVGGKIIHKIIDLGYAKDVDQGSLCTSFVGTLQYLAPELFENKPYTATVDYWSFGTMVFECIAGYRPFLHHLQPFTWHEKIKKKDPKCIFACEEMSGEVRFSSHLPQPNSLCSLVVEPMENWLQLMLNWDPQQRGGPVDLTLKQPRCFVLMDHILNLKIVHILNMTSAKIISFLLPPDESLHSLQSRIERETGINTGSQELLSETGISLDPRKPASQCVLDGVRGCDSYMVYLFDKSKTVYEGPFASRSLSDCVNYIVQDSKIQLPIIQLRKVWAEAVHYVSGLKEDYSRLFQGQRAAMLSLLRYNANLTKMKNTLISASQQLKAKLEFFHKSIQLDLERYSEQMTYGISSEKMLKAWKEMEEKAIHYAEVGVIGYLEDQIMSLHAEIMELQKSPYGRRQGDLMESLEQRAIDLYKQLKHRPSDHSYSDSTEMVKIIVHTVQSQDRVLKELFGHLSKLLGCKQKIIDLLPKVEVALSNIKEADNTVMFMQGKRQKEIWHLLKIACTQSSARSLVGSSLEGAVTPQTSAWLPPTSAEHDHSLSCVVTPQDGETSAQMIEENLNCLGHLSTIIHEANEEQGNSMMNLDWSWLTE", "experiment": "SEC; total protein extracts of MDA-MB-231 (control and shMORG1) on Superose 6 10/300 GL, 25 mM Tris-HCl pH 8.0, 1 mM MgCl2, 10% glycerol; fractions analysed by Western blot"}, "[2]": {"target": "T2, IKKβ (human (endogenous in MDA-MB-231, BT549)) (UniProt O14920)", "T2 sequence": "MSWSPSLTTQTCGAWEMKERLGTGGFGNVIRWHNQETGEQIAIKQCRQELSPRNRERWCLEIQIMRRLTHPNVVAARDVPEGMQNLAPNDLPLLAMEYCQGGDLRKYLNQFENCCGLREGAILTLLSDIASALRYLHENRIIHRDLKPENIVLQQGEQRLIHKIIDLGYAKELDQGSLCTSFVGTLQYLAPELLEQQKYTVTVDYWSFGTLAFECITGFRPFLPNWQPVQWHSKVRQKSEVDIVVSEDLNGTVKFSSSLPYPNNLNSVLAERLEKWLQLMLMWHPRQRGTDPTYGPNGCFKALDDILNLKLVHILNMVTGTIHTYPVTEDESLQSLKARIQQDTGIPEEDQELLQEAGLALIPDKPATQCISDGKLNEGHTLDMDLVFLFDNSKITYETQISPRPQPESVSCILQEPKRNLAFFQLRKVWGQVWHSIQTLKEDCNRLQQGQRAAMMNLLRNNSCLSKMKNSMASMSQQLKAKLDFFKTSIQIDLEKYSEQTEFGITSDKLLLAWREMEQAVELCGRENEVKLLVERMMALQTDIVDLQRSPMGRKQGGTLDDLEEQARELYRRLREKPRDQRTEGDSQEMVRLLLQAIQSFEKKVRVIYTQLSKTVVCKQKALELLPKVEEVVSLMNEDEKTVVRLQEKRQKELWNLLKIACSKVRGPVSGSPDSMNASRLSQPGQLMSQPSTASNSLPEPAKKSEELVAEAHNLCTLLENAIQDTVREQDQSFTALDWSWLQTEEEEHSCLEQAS", "experiment": "SEC; total protein extracts of MDA-MB-231 (control and shMORG1) on Superose 6 10/300 GL, 25 mM Tris-HCl pH 8.0, 1 mM MgCl2, 10% glycerol; fractions analysed by Western blot"}}, "note": "No constants are given. Whether binding was seen depends on the method and setting. Binding can be weak; no strength is given.", "data": [{"substance": "Hsp90 (human (endogenous in MDA-MB-231))", "values": [{"measurement": "binding", "setting": "[1]", "result": "binds"}, {"measurement": "binding", "setting": "[2]", "result": "binds"}]}]}
